No constants are given. Whether binding was seen depends on the method and setting. Binding calls can cover weak binding; strength is not graded here.

The text below walks through data of publication PMC3890537.

Among the targets are BnaCBL9 (Brassica napus) (UniProt V9LYC6); BnaCBL4 (Brassica napus); BnaCBL1 (Brassica napus) (UniProt V9LYC3).
Holding throughout (experiment): two-hybrid; MatchMaker system (Clontech); BnaCBLs in pGBKT7, BnaCIPKs or BnaCIPK3 fragments in pGADT7; yeast strain AH109; growth at 30°C on SD-LTHA (only growth on SD-LTHA scored as interaction), dilution series and X-gal staining
The target of experiment [1] is BnaCBL10 (Brassica napus) (UniProt V9LYF0).

Turning to BnaCIPK1 (from UniProt V9LYF3), the binding result with BnaCBL9 (Brassica napus) is on record as “binds weakly”; in experiment [1], “no binding”; with BnaCBL4 (Brassica napus) it was “binds”; with BnaCBL1 (Brassica napus) it was “binds”.
As for BnaCIPK5 (from UniProt V9LYF7), the binding result (with BnaCBL9 (Brassica napus); in experiment [1]; with BnaCBL4 (Brassica napus); with BnaCBL1 (Brassica napus)) was “binds” in each case.
Turning to BnaCIPK6 (from UniProt V9LY54), the binding entry with BnaCBL9 (Brassica napus) is “binds”; in experiment [1], “no binding”; with BnaCBL4 (Brassica napus) it was “binds”; in the experiment with BnaCBL1 (Brassica napus), “binds”.
As to BnaCIPK7 (from UniProt A0A078HQE5), the binding entry with BnaCBL9 (Brassica napus) is on record as “binds”; in experiment [1], “no binding”; with BnaCBL4 (Brassica napus), “binds”; in the experiment with BnaCBL1 (Brassica napus), “binds weakly”.
Regarding BnaCIPK8 (from UniProt V9LY73), the binding result with BnaCBL9 (Brassica napus) is “no binding”; in experiment [1] it was “no binding”; in the experiment with BnaCBL4 (Brassica napus) it was “no binding”; with BnaCBL1 (Brassica napus) it was “binds weakly”.
For the substance BnaCIPK9 (from UniProt V9LYD1), the binding entry with BnaCBL9 (Brassica napus) is reported as “binds”; in experiment [1], “no binding”; with BnaCBL4 (Brassica napus) it was “binds”; with BnaCBL1 (Brassica napus), “binds”.
In the case of BnaCIPK10 (from UniProt V9LY51), the binding entry (in the experiment with BnaCBL9 (Brassica napus); in experiment [1]; in the experiment with BnaCBL4 (Brassica napus); with BnaCBL1 (Brassica napus)) was “binds” each time.
Turning to BnaCIPK11 (from UniProt V9LYK3), the binding result in experiment [1] is “binds weakly”; in the experiment with BnaCBL4 (Brassica napus), “binds”; with BnaCBL1 (Brassica napus), “binds”.
With BnaCIPK12 (from UniProt V9LY68), the binding result in experiment [1] is recorded as “no binding”; in the experiment with BnaCBL4 (Brassica napus), “binds weakly”.
BnaCIPK15 (from UniProt V9LYC8): the binding entry (with BnaCBL9 (Brassica napus); in experiment [1]; in the experiment with BnaCBL4 (Brassica napus)) was “binds” in each case.
In the case of BnaCIPK17 (from UniProt V9LYF6), the binding entry (with BnaCBL9 (Brassica napus); in experiment [1]; with BnaCBL4 (Brassica napus); with BnaCBL1 (Brassica napus)) was “binds” throughout.
BnaCIPK24 (from UniProt V9LYK4): the binding entry in the experiment with BnaCBL9 (Brassica napus) is “binds”; in experiment [1], “no binding”; in the experiment with BnaCBL4 (Brassica napus) it was “binds”; in the experiment with BnaCBL1 (Brassica napus), “binds weakly”.
Take BnaCIPK25 (from UniProt V9MHQ9): the binding result was “no binding” with BnaCBL9 (Brassica napus), “no binding” in experiment [1], “binds weakly” with BnaCBL4 (Brassica napus) and “binds” with BnaCBL1 (Brassica napus).
Consider BnaCIPK26 (from UniProt V9LY70), for which the binding entry is “binds” with BnaCBL9 (Brassica napus), “binds” in experiment [1], “binds” with BnaCBL4 (Brassica napus) and “binds weakly” with BnaCBL1 (Brassica napus).
